Data as given in PubChem BioAssay AID504793 (Drosophila RNAi Screening Center, 2011)

- Assay: 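Genes required for cells to halt at G2/M after double-strand DNA breaks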 (primary screen)
- Cells: Drosophila S2R+ cells
- Knock-down reagent: long dsRNA against Drosophila genes, about 0.25 µg dsRNA per well
- Time to read-out: 4 days of dsRNA, then 4 hours of drug before read-out
- Treatment: doxorubicin 0.5 µM for 4 hours to cause double-strand breaks, in cells also given a low, harmless dose of dsRNA against nbs to sensitise the assay
- Measured: 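Mitotic index as the number of phospho-histone H3-positive cells in each well following doxorubicin, given as raw counts without normalisation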
- Direction: mitotic cells: higher = more cells in mitosis, weaker G2 arrest
- Call rule: 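a call needs confirmation in secondary tests, with other dsRNAs and a check of mitotic timing without damage, not just a high primary count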
- Meaning of the calls: active = confirmed in follow-up tests; inactive = not confirmed
The screen tested about 23,000 reagents; below is an unselected part of those with a known target gene and a result. In the full data, 62 (0.27%) got an active call. 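Calls come from follow-up tests whose scores are not deposited, so confirmed genes may have low counts here; counts are not normalised per plate.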 Raw values vary from plate to plate and are shown uncorrected. Entries without a mark were called inactive. A plus sign joins genes that one reagent is predicted to hit. Reagent sequences are not shown.

| predicted target | DRSC id | mitotic cells, replicate 1 | mitotic cells, replicate 2 |
| --- | --- | --- | --- |
| CG12723 | DRSC19499 | 4 | – |
| CG12723 | DRSC26290 | 13 | – |
| CG11127 | DRSC06043 | 7 | – |
| ari-2 (ariadne 2) | DRSC04672 | 7 | – |
| ari-2 (ariadne 2) | DRSC27896 | 9 | – |
| CG32206 | DRSC10094 | 4 | – |
| CG32206 | DRSC10095 | 1 | – |
| CG32206 | DRSC10096 | 2 | – |
| CG32206 | DRSC11080 | 6 | – |
| Ser6 (Serine protease 6) | DRSC20574 | 5 | – |
| Ser6 (Serine protease 6) | DRSC27628 | 5 | – |
| bam (bag of marbles) | DRSC16907 | 7 | – |
| Gsc (Goosecoid) | DRSC00755 | 2 | – |
| Gsc (Goosecoid) | DRSC25752 | 1 | – |
| CG16734 | DRSC15143 | 5 | – |
| CG9135 | DRSC03144 | 4 | – |
| CG13331 | DRSC06366 | 7 | – |
| shg (shotgun) | DRSC04714 | 5 | – |
| shg (shotgun) | DRSC27751 | 5 | – |
| shg (shotgun) | DRSC38948 | 9 | – |
| ptc (patched) | DRSC05117 | 6 | – |
| ptc (patched) | DRSC07669 | 6 | – |
| bab1 (bric a brac 1) | DRSC08709 | 11 | – |
| bab1 (bric a brac 1) | DRSC21882 | 14 | – |
| bab1 (bric a brac 1) | DRSC25457 | 6 | – |
| CG43707 | DRSC00280 | 3 | – |
| CG43707 | DRSC22869 | 6 | – |
| CG43707 | DRSC25146 | 11 | – |
| wtrw (water witch) | DRSC14241 | 4 | – |
| wtrw (water witch) | DRSC15278 | 5 | 13 |
| wtrw (water witch) | DRSC29977 | 19 | – |
| Mul1 (Mitochondrial E3 ubiquitin protein ligase 1) | DRSC08174 | 8 | – |
| Mul1 (Mitochondrial E3 ubiquitin protein ligase 1) | DRSC25694 | 3 | – |
| CG34205 | DRSC04149 | 5 | – |
| CG34205 | DRSC22823 | 17 | – |
| mxc (multi sex combs) | DRSC17819 | 11 | – |
| CG15880 | DRSC00474 | 3 | – |
| CG31365 | DRSC15610 | 15 | – |
| Pex3 (Peroxin 3) | DRSC10731 | 10 | – |
| CG7135 | DRSC20026 | 12 | – |
| CG7135 | DRSC29942 | 8 | – |
| sta (stubarista) | DRSC18838 | 6 | – |
| sta (stubarista) | DRSC25879 | 4 | – |
| CG8281 | DRSC10976 | 2 | – |
| CG10208 | DRSC14211 | 14 | – |
| Galt (Galactose-1-phosphate uridylyltransferase) | DRSC03161 | 4 | – |
| mino (minotaur) | DRSC14132 | 12 | – |
| Fkbp59 (FK506-binding protein 59kD) | DRSC03323 | 4 | – |
| Fkbp59 (FK506-binding protein 59kD) | DRSC28356 | 3 | – |
| Cht5 (Chitinase 5) | DRSC16470 | 6 | – |
| Cht5 (Chitinase 5) | DRSC26080 | 6 | – |
| scrib (scribble) | DRSC13774 | 8 | – |
| scrib (scribble) | DRSC15809 | 7 | – |
| scrib (scribble) | DRSC17051 | 9 | – |
| scrib (scribble) | DRSC25196 | 6 | – |
| trem (trade embargo) | DRSC15575 | 3 | – |
| CG42450 | DRSC20022 | 7 | – |
| CG42450 | DRSC22751 | 6 | – |
| fs(2)ltoPP43 (female sterile (2) ltoPP43) | DRSC02067 | 7 | – |
| fs(2)ltoPP43 (female sterile (2) ltoPP43) | DRSC24493 | 6 | – |
| spoon (spoonbill) | DRSC18299 | 4 | – |
| spoon (spoonbill) | DRSC24520 | 6 | – |
| Loxl1 (Lysyl oxidase-like 1) | DRSC14303 | 9 | – |
| CG3862 | DRSC00631 | 4 | – |
| CG3862 | DRSC28505 | 8 | – |
| CG15638 | DRSC01875 | 3 | – |
| CG3719 | DRSC18493 | 6 | – |
| CG4020 | DRSC18337 | 13 | – |
| CG15219 | DRSC03715 | 3 | – |
| GluClalpha (Glutamate-gated chloride channel subunit alpha) | DRSC16680 | 11 | – |
| CG5535 | DRSC10514 | 10 | – |
| CG5535 | DRSC29215 | 9 | – |
| CG10340 | DRSC14232 | 3 | – |
| hpRNA:CR32205 (hairpin RNA:CR32205) | DRSC09890 | 8 | – |
| CG5731 | DRSC02883 | 10 | – |
| CG5731 | DRSC25969 | 9 | – |
| lncRNA:CR41601 (long non-coding RNA:CR41601) | DRSC22158 | 7 | – |
| crok (crooked) | DRSC02593 | 3 | – |
| crok (crooked) | DRSC21349 | 15 | – |
| crok (crooked) | DRSC29822 | 10 | – |
| CG15456 | DRSC20527 | 4 | – |
| Oatp33Ea (Organic anion transporting polypeptide 33Ea) | DRSC02859 | 3 | – |
| Oatp33Ea (Organic anion transporting polypeptide 33Ea) | DRSC26461 | 9 | – |
| sxc (super sex combs) | DRSC04911 | 6 | – |
| norpA (no receptor potential A) | DRSC18806 | 10 | – |
| pasi2 (pasiflora 2) | DRSC16380 | 8 | – |
| CG13540 | DRSC04182 | 6 | – |
| CG15368 | DRSC23291 | 7 | – |
| CG15368 | DRSC25848 | 8 | – |
| Twdlbeta (Tweedlebeta) | DRSC07310 | 7 | – |
| Twdlbeta (Tweedlebeta) | DRSC25646 | 1 | – |
| CG7806 | DRSC03071 | 3 | – |
| CG17470 | DRSC02621 | 4 | – |
| CG1314 | DRSC20495 | 6 | – |
| Hayan | DRSC19989 | 8 | – |
| Hayan | DRSC22231 | 10 | – |
| Hayan | DRSC26434 | 7 | – |
| Obp56i (Odorant-binding protein 56i) | DRSC05812 | 9 | – |
| CG31207 | DRSC21886 | 9 | – |
| CG15506 | DRSC15047 | 17 | – |
| Ugt37B1 (UDP-glycosyltransferase family 37 member B1) | DRSC03225 | 8 | – |
| Smyd5 (SET and MYND domain containing, class 5) | DRSC15483 | 7 | – |
| zormin | DRSC07969 | 4 | – |
| zormin | DRSC08210 | 6 | – |
| zormin | DRSC08212 | 4 | – |
| zormin | DRSC08213 | 5 | – |
| zormin | DRSC08297 | 6 | – |
| zormin | DRSC22483 | 12 | – |
| CG31928 | DRSC00293 | 10 | – |
| CheA87a (Chemosensory protein A 87a) | DRSC14839 | 10 | – |
| CG44433 | DRSC06517 | 5 | – |
| CG44433 | DRSC06518 | 3 | – |
| CG44433 | DRSC26571 | 3 | – |
| CG17928 | DRSC02644 | 14 | – |
| Tsr1 (Tsr1 ribosome assembly factor) | DRSC11821 | 7 | – |
| CG3841 | DRSC02730 | 5 | 2 |
| CG30054 | DRSC05354 | 2 | – |
| CG30016 | DRSC05242 | 8 | – |
| Dnaaf3 (Dynein axonemal assembly factor 3) | DRSC06684 | 7 | – |
| LeuRS-m (Leucyl-tRNA synthetase, mitochondrial) | DRSC08595 | 8 | – |
| LeuRS-m (Leucyl-tRNA synthetase, mitochondrial) | DRSC28690 | 10 | – |
| CG4766 | DRSC17736 | 14 | – |
| CG15422 | DRSC00436 | 3 | – |
| CG15422 | DRSC25238 | 7 | – |
| ema (endosomal maturation defective) | DRSC14536 | 6 | – |
| CG13674 | DRSC10033 | 5 | – |
| CG13674 | DRSC27828 | 7 | – |
| CG18190 | DRSC06714 | 7 | – |
| CG18190 | DRSC27920 | 7 | – |
| Cpr67Fa1 (Cuticular protein 67Fa1) | DRSC10932 | 2 | – |
| trn (tartan) | DRSC11407 | 4 | – |
| CG42514 | DRSC10428 | 4 | – |
| CG11722 | DRSC14358 | 12 | – |
| nito (spenito) | DRSC05943 | 7 | – |
| Dic3 | DRSC06058 | 3 | – |
| AOX1 (Aldehyde oxidase 1) | DRSC15339 | 8 | – |
| AOX1 (Aldehyde oxidase 1) | DRSC29234 | 6 | – |
| RpS26 (Ribosomal protein S26) | DRSC03420 | 5 | – |
| CG31274 + MESK4 | DRSC13202 | 1 | – |
| CG30428 | DRSC04041 | 5 | – |
| CG30428 | DRSC28228 | 2 | – |

16 successive reagents already listed, quoted:
| predicted target | DRSC id | mitotic cells, replicate 1 | mitotic cells, replicate 2 |
| --- | --- | --- | --- |
| Hayan | DRSC22231 | 10 | – |
| Hayan | DRSC26434 | 7 | – |
| Obp56i (Odorant-binding protein 56i) | DRSC05812 | 9 | – |
| CG31207 | DRSC21886 | 9 | – |
| CG15506 | DRSC15047 | 17 | – |
| Ugt37B1 (UDP-glycosyltransferase family 37 member B1) | DRSC03225 | 8 | – |
| Smyd5 (SET and MYND domain containing, class 5) | DRSC15483 | 7 | – |
| zormin | DRSC07969 | 4 | – |
| zormin | DRSC08210 | 6 | – |
| zormin | DRSC08212 | 4 | – |
| zormin | DRSC08213 | 5 | – |
| zormin | DRSC08297 | 6 | – |
| zormin | DRSC22483 | 12 | – |
| CG31928 | DRSC00293 | 10 | – |
| CheA87a (Chemosensory protein A 87a) | DRSC14839 | 10 | – |
| CG44433 | DRSC06517 | 5 | – |
